## Percent effect of library compounds

Chains of the proteins cited; added tags and fusions are not shown.
UniProt P9WFT3, whole entry: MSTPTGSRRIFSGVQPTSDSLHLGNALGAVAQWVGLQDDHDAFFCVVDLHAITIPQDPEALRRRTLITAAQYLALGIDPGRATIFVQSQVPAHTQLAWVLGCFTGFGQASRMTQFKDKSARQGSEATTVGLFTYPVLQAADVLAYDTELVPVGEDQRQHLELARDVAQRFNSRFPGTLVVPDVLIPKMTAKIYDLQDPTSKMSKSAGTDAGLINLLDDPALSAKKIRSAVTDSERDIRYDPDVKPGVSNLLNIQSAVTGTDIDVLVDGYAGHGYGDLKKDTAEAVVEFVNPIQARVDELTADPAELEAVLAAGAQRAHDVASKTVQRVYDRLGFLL

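Enzyme assay of tryptophanyl-tRNA synthetase; the read-out is not stated. Target: Tryptophan-tRNA ligase, Mycobacterium tuberculosis (UniProt P9WFT3). Compounds at 10 µM. Higher most likely means stronger inhibition; the record gives no direction and few retests gave an IC50. About 65,000 compounds were tested under these conditions; 0.098% (about 64) showed 50% or more at least once.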

The filed quantity is “Percent Effect” (%).
The record does not define 0% and 100%; most values in the screen are far below 50% and negative numbers occur (in some assays of this library far below -100).
This is an unselected part of the compounds tested.

Compound | percent effect
Cc1ccc(-c2nc(CNCC3CN(C)CCO3)cs2)o1 (configuration not stated) | 5.796
Cc1nc(CN(C)C2CCN(CCc3ccc4c(c3)CCO4)C2)no1 (configuration not stated) | -8.903
CN(CCSc1nncn1C(C)(C)C)c1ccccc1 | -4.898
c1coc(CN2C[C@@H]3OCCN(CC4CCCO4)[C@@H]3C2)c1 (some centres not stated) | 2.674
Cc1cccc(CNC(Cc2ccsc2)c2nccs2)n1 (configuration not stated) | -1.795
Cc1ncoc1C(=O)N1CCc2[nH]nc(-c3ccc4c(c3)OCO4)c2C1 | 7.392
O=C(CCc1ccc(Cl)s1)N1CCCC(N2CCNC2=O)C1 (configuration not stated) | 0.4079
CCn1ccc(NC(=O)C2CCC(=O)N2Cc2ccc(C)o2)n1 (configuration not stated) | -3.25
CN1CCC(N2CCOC[C@H]2c2nc(C(C)(C)C)c[nH]2)CC1 | -0.3794
Cc1cccc2cc(C(=O)N3CCSCC3)n(C)c12 | -1.211
Cc1nonc1C(=O)N1CCc2c(ncn2CCc2ccccc2)C1 | -2.918
CCCS(=O)(=O)N1Cc2ccnn2CC(c2nc(C)no2)C1 (configuration not stated) | -2.525
Cc1nc(C2CCN(C[C@H](C)CO)CC2)cc(N2CCOCC2)n1 | -2.43
CNC(=O)CN1CCC(CN(C)Cc2ccc(C)cc2C)CC1 | 3.231
COc1cc(Cl)c(CN2CCC(C(N)=O)C2)cc1Cl (configuration not stated) | 1.861
CN(Cc1ccsc1)C(=O)Nc1cccc(N2CCOC2=O)c1 | 6.502
Cc1cc(N(C)C)nc(C2COCCN2Cc2nccn2C)n1 (configuration not stated) | -7.542
CCN(CC1CCOC1)C(=O)Nc1ccc(-n2cncn2)nc1 (configuration not stated) | -2.747
Cc1csc(C2CCCCN2C(=O)c2cnn3ccc(C)nc23)n1 (configuration not stated) | -2.189
O=C(Cc1ccon1)N1CCN(c2ccc(F)cc2Cl)CC1 | -4.558
CCc1noc(C(C)N2CCN(Cc3nc(C)c(C)o3)CC2)n1 (configuration not stated) | -6.918
CC(=O)NCC(=O)N(CCN1CCOCC1)Cc1ccco1 | 0.5073
CNc1cncc(C2CCCN2C(=O)Cn2ccnc2C)n1 (configuration not stated) | -5.208
CN(C)[C@@H]1CN(Cc2ccco2)C[C@@H]2CCCO[C@@H]21 | -0.8629
COC(=O)NCC(=O)N1CCCn2nc(CN3CC[C@H](F)C3)cc2C1 | 0.7988
O=C(NCc1ccccc1CN1CCCC1=O)Nc1nncs1 | -1.141
COCc1ccc(C(=O)N(CCC#N)Cc2ccccn2)cc1 | 6.01
CC(C)(Cn1cnc(-c2ccccc2)c1-c1ccco1)N1CCOCC1 | 1.079
CCN(C)CC(=O)N1CCCC(c2nnc(CN3CCOCC3)n2C)C1 (configuration not stated) | -5.589
CC1=C(C(=O)N(C)Cc2noc3c2CCCC3)C(C)NC(=O)N1 (configuration not stated) | 4.516
CCN(CC)Cc1cnc2n1CCN(C1CCOC1)CC2 (configuration not stated) | -2.876
CCOc1ccc(NC(C)C(=O)NCCc2cccs2)cc1CO (configuration not stated) | 2.897
O=C(c1ccccc1)N1CCC[C@]2(C[C@@H](Oc3ncccc3F)CO2)C1 | -7.508
OC(CNCCn1cccn1)COc1ccc2ccccc2c1 (configuration not stated) | -2.916
CCc1cnc(N2C[C@H]3CCCC(N(C)Cc4ccccn4)[C@H]3C2)nc1 (some centres not stated) | -5.969
O=C(c1cccnc1)N1C[C@@H]2OCC(=O)N(Cc3cccnc3)[C@@H]2C1 | -3.414
CCOC(=O)Cn1cnc2nc3n(c2c1=O)CCC3 | 2.279
CN(C)C(=O)CN1CCCCC1c1nc(N)ncc1-c1ccccc1 (configuration not stated) | -2.467
CNC(=O)N1CC[C@@H]2CN(CCc3cccc(OC)c3)S(=O)(=O)[C@@H]2CC1 | -3.312
CC1=Nc2c(c(O)nn2C2CCOCC2)C(c2cccnc2)S1 (configuration not stated) | -3.215
COCCN(Cc1ccccn1)Cc1sccc1C | 2.419
COc1cc(F)ccc1-c1ncccc1NC(=O)C(C)C | -0.8051
COc1cc(N2CC[C@@H]3O[C@@H](c4ccncn4)C[C@H]3C2)ncn1 | 6.417
Cc1ncc(CN2CCOC(c3ccc(-c4ccccc4F)cn3)C2)s1 (configuration not stated) | 5.391
COc1ccc(F)c(CN2CCCC3(CCN(C(=O)CSC)C3)C2)c1 (configuration not stated) | -4.257
Cc1noc(C)c1CN1CCn2nc(CCC(=O)N3CCCC3)cc2C1 | -2.905
CCc1nc(C)c([C@H]2CN(C)C[C@@H]2C(=O)Nc2cccc3cn[nH]c23)[nH]1 | -1.016
O=C(c1ccc(F)cc1)N1CCN2C[C@H](OCc3ccccn3)C[C@H]2C1 | 3.226
CC(C)n1ccnc1CN1CCCN(C(=O)CN(C)C2CC2)CC1 | -3.323
N#Cc1ccnc(N2CCN(CC(O)c3ccc(F)cc3)CC2)c1 (configuration not stated) | -3.601
Cc1ccccc1CN(C)CC(O)COCc1ccccc1Cl (configuration not stated) | -7.021
CC(C)c1nc(CN2CCCN(Cc3nccn3C)CC2)no1 | 8.88
COc1ccc(OC)c(C2CCN(c3ccc4cc[nH]c4n3)C2)c1 (configuration not stated) | -5.416
COCc1noc(-c2ccc(N(C)Cc3cn(C)nc3C)nc2)n1 | -1.087
CC(C)(C)c1cc(CNC(=O)c2cc(COc3ccccc3)[nH]n2)[nH]n1 | -4.762
COCC(NC(=O)c1cnn(C)c1)c1cccc(C(F)(F)F)c1 (configuration not stated) | -3.493
O=C1OCCN1Cc1cccc(F)c1C(F)(F)F | -4.409
CN1CCC(c2ncc3c(n2)CCN(C(=O)CC2C=CCC2)C3)CC1 (configuration not stated) | -1.083
Cc1ccc(C(=O)NCC(O)c2cnn(C)c2)c(Br)c1 (configuration not stated) | -2.34
O=C(NCCOc1ncc(Cl)cc1Cl)c1ccncc1 | -2.627
NC(=O)CCSCc1ccc(Br)c(F)c1 | 0.7346
CCn1c(C)nnc1SCCNc1nc(C)ncc1S(C)(=O)=O | -0.2894
COc1cccc(CN2CCOC(Cn3nc(C)cc3C)C2)c1 (configuration not stated) | -1.876
CSCc1ccc(CNCCN2CCOCC2)o1 | -5.34
CN1CCC(N(Cc2ccccc2)C(=O)c2ccn3ccnc3c2)CC1 | -4.369
CCc1nc(C)sc1C(=O)N1CCN(c2ncccc2C)CC1 | 0.6299
CCc1nc(CC)n(CC(=O)N(C)CC(F)(F)F)n1 | -3.177
Cc1oc(-c2ccco2)nc1CN1CCc2cnc(C(C)C)nc2C1 | 3.936
CN(C)c1cc(C(=O)N2CCCCC2Cn2cccn2)ccn1 (configuration not stated) | 4.263
Cc1noc(C)c1CN(C)C(=O)c1ccc2c(c1O)OC(C)(C)C2 | -3.515
CC(N)Cc1ccccc1Sc1ccccc1 (configuration not stated) | 4.812
Cc1nnc([C@]23COC[C@H]2CN(Cc2cnn(C)c2)C3)o1 | -2.035
O=C(CCCOc1ccccc1)N1CCCC(n2cncn2)C1 (configuration not stated) | -2.005
OC1(CNC2CCN(Cc3ccncc3)CC2)CCc2ccccc21 (configuration not stated) | -0.2793
COc1cccc(-c2cccc(N3CCC(N[C@@H]4CCOC4)CC3)c2)c1 | -2.349
O=C1CC2(CCSC2)C(=O)N1Cc1coc(-c2ccccc2)n1 (configuration not stated) | -4.231
CNc1cc(C(=O)N(C)Cc2cc(-c3cccs3)n[nH]2)ccn1 | -2.536
c1ccc(CCN2CCOC(CNc3cccnn3)C2)nc1 (configuration not stated) | -2.611
O=C(Nc1ccccc1OC1CCOC1)c1cc[nH]n1 (configuration not stated) | -3.44
CNc1ncc(C(=O)N[C@H]2CN(CCCSC)C[C@@H]2C2CC2)cn1 | -0.3661
Cc1n[nH]c(C2CN(C(=O)c3ccc4c(c3)CCCC4)CCO2)n1 (configuration not stated) | 3.311
Cc1cnn(C2CCCN(C(=O)c3cn(-c4ccccc4)nn3)C2)c1 (configuration not stated) | 0.7382
Cc1cc(C(=O)N(CC(C)C)CC(O)c2ccc(F)cc2)[nH]n1 (configuration not stated) | -3.294
COc1ccc(C)cc1C(C)NC(=O)NCCCn1cncn1 (configuration not stated) | -1.774

The values are deposited in ChEMBL (CHEMBL3988442, “University of Dundee, Small-Polar-MMV Screening Library” (2021)).